The list shows a part of the results.

Sequences of proteins named here, by UniProt entry; tags and fusion partners are left off.
UniProt Q0JBA9, entry or part of it: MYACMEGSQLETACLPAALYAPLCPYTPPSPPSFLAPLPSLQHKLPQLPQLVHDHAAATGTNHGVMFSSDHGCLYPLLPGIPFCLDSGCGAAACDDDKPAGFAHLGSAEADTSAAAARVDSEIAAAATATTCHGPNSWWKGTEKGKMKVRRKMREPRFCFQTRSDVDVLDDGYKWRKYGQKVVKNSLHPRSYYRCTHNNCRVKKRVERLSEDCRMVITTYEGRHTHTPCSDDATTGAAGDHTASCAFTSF

The experiment has as its target OsWRKY34 (Oryza sativa, UniProt Q0JBA9 1-250). Description: protein-binding microarray (RPBM); PBS, 2% BSA, 51.3 ng/ul salmon testes DNA, 50 uM zinc acetate, 200 nM TF, 25 C, 1 h; high values mean tight binding. Particulars: protein: recombinant; tags: N-terminal polyhistidine and DsRed monomer fusion (pET32a); label: CyDye5-dUTP incorporated in the synthesized complementary strand; 3' TTTTT single-stranded linker to array surface; dsDNA, one strand shown. In a few lines: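 Per-feature fluorescence intensity (arbitrary units), read on an Axon 4000B scanner, is the binding signal. Transcription factors carrying an N-terminal polyhistidine tag and DsRed fusion were expressed in E. coli BL21-CodonPlus and purified on Ni–NTA. A custom Agilent array, made double-stranded by primer extension with Cy5-dUTP and blocked with 2% BSA, was incubated with 200 nM protein in PBS, 2% BSA, salmon testes DNA and 50 µM zinc acetate at 25 °C for 1 h and then washed.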
“CGAATTCGCCGTCGCCGTCCCCTAGCATCCGCGCCGCCCACGGAGTCACCTAGTGCAG”: the binding signal is 9690 fluorescence intensity (a.u.).

With “AGCCGCTGTCCTCGCCCGCATCCGCTGCGTCATGGCCACCCGGAGTCACCTAGTGCAG”, the binding signal is 9200 fluorescence intensity (a.u.).

“CAGTTTGTGACATAATTTTCTTTGTTGCTTTTTGGTTGACCGGAGTCACCTAGTGCAG”: the binding signal was 12600 fluorescence intensity (a.u.).

“TCGTCGCCATCGCCGCCTCTTCGCTTCTTCATCTCCCCACCGGAGTCACCTAGTGCAG”: the binding signal was 8130 fluorescence intensity (a.u.).

As for “AAGCGCGGCCGTATTTATCCAACCCGATCGATCGATCGATCGGAGTCACCTAGTGCAG”, the binding signal was 8440 fluorescence intensity (a.u.).

Consider “TACCCACCCCACCGAACCCTAACCAATCCTAGCCACCGCCCGGAGTCACCTAGTGCAG”, for which the binding signal was 10100 fluorescence intensity (a.u.).

“TGTTTGACGCCGTTGACTTTTTTAAACATGTTTGACCATTCGGAGTCACCTAGTGCAG”: the binding signal is 34200 fluorescence intensity (a.u.).

Turning to “CCTATTGGAAAATTTTCTTTTTTTTGTCTATCTCTCTTATCGGAGTCACCTAGTGCAG”, the binding signal is 11100 fluorescence intensity (a.u.).

For “TAGTTTTGTTCTTTGTCTATATTTAATACTCTATATCTATCGGAGTCACCTAGTGCAG”, the binding signal was 8590 fluorescence intensity (a.u.).

In the case of “TGTTCACCGTCCATTCCATTATGTCGTGCGGTTTATGCATCGGAGTCACCTAGTGCAG”, the binding signal is 11800 fluorescence intensity (a.u.).

As to “TGCAGAGATCATGGACACACACATGGACCTATGGCATTTTCGGAGTCACCTAGTGCAG”, the binding signal is 8190 fluorescence intensity (a.u.).

Consider “GAATTGAATTGAAGGTTCTTGGGTGCTTTCTTTTCCAGTTCGGAGTCACCTAGTGCAG”, for which the binding signal is 8070 fluorescence intensity (a.u.).

On to “CCGGCCTCTTGCCTCCGCTCCGCGCTCTCATCACACATCTCGGAGTCACCTAGTGCAG”, for which the binding signal was 10100 fluorescence intensity (a.u.).

In the case of “GAGTGCAACATATGATGATTTCTTTTTCTTCTGCCCATAACGGAGTCACCTAGTGCAG”, the binding signal was 8250 fluorescence intensity (a.u.).

On to “CGTCGGATTCCTGCCCGGAACTAGCTCGATCTCACTCGTTCGGAGTCACCTAGTGCAG”, for which the binding signal was 8090 fluorescence intensity (a.u.).

Take “GTGTTCGTTAATGGTATTTCTTGGATTGGAGGGCTCGTGACGGAGTCACCTAGTGCAG”: the binding signal was 8150 fluorescence intensity (a.u.).

Regarding “AACCCATGCCTTCTCATCTCACTTGCACGCACCTACCCTTCGGAGTCACCTAGTGCAG”, the binding signal was 8490 fluorescence intensity (a.u.).

As for “ACATTTCACTTCATCGTCTCGATCGATCGAGCTTCGAGCACGGAGTCACCTAGTGCAG”, the binding signal was 8050 fluorescence intensity (a.u.).

Take “ATCGTCGCTCGCCGGTGAGCATCCCTCCCTACCCACACCTCGGAGTCACCTAGTGCAG”: the binding signal is 9070 fluorescence intensity (a.u.).

For the sequence “CTTGCTTTTAGTATTTGTTCATTCATGTTACTTCGAATTGCGGAGTCACCTAGTGCAG”, the binding signal is 9560 fluorescence intensity (a.u.).

For the sequence “CCATCCAACCCTGTTTTTACTTTGGAATGCATAATCTTTTCGGAGTCACCTAGTGCAG”, the binding signal was 9400 fluorescence intensity (a.u.).

As for “ACTTTTTTTGGTGACTATGTGTTTCCCTGTGGTGGGCTTCCGGAGTCACCTAGTGCAG”, the binding signal is 12000 fluorescence intensity (a.u.).

Regarding “CACACACACTCTACATGGAACGTTCACATATGGATTCTCACGGAGTCACCTAGTGCAG”, the binding signal was 8910 fluorescence intensity (a.u.).

Consider “TCCCGCTGGCCGCTGCTCCAACCCGTGCTCTCCGTGGCCGCGGAGTCACCTAGTGCAG”, for which the binding signal is 9600 fluorescence intensity (a.u.).

Turning to “TAGCATTTTTCCCACCAGTCTTCTCACGAACGCACGAAAGCGGAGTCACCTAGTGCAG”, the binding signal was 8370 fluorescence intensity (a.u.).

For the sequence “TGCCAATGCCATTGGCGAATTCGCGTTACGTCTACGAAAACGGAGTCACCTAGTGCAG”, the binding signal was 8430 fluorescence intensity (a.u.).

Consider “GAACTTTTTGTACCTGTTGGTGTTGGATCTTTTTTTTTTACGGAGTCACCTAGTGCAG”, for which the binding signal is 9540 fluorescence intensity (a.u.).

For “CATTAGGACCTCGATCACTTAACTGTATGCAATATATCCTCGGAGTCACCTAGTGCAG”, the binding signal is 8490 fluorescence intensity (a.u.).

In the case of “AGTTCATTCTCGATCTGCCAACTTCATTCTCCCGTCTATACGGAGTCACCTAGTGCAG”, the binding signal is 9270 fluorescence intensity (a.u.).

On to “TGGGTTTTACGGTTTTACCCTCTCGGGCTTGAGGGGAGAGCGGAGTCACCTAGTGCAG”, for which the binding signal was 47600 fluorescence intensity (a.u.).

Take “TCATCTGTGTCAATCTCTCTTCTAACTCCTACGTTTTTTTCGGAGTCACCTAGTGCAG”: the binding signal is 8650 fluorescence intensity (a.u.).

Consider “TGTTGTCTACTCTTTCTTCGACTACAGAGTTATGGTGGATCGGAGTCACCTAGTGCAG”, for which the binding signal is 8170 fluorescence intensity (a.u.).

As for “TGAATTTTGGTAGGATGGGGATGGGGAACTGAGGAAGGAACGGAGTCACCTAGTGCAG”, the binding signal was 8320 fluorescence intensity (a.u.).

Turning to “TCTCCCGTCTCCGTATCCTCCGCTCCTTCGCCATCTCGCGCGGAGTCACCTAGTGCAG”, the binding signal is 15700 fluorescence intensity (a.u.).

As for “GGGTTATTTTGCAAATTTTCACCGCGAGTAGAGTAACTTTCGGAGTCACCTAGTGCAG”, the binding signal is 9870 fluorescence intensity (a.u.).

For “TAAATCATAAGCTCGATATTAGTTTTGGAGTCTACATGACCGGAGTCACCTAGTGCAG”, the binding signal is 10200 fluorescence intensity (a.u.).

Turning to “CGACTCCGGCGATTTCTTCCGCTGCATCAACACCCGTTTCCGGAGTCACCTAGTGCAG”, the binding signal is 10700 fluorescence intensity (a.u.).

“AATTATTAATTTTTTTCCTATTATTTGATTTATTGTTAAACGGAGTCACCTAGTGCAG”: the binding signal is 9560 fluorescence intensity (a.u.).

Regarding “CCAATTAAACCCTACTCTCTCTCTCTCTCTCTCTCTCTCTCGGAGTCACCTAGTGCAG”, the binding signal was 11100 fluorescence intensity (a.u.).

As to “TTAACTGTCCTGGTCAAAATCCGTCCTCACACGCGCGAATCGGAGTCACCTAGTGCAG”, the binding signal is 10000 fluorescence intensity (a.u.).

“CCTGCGGATTCCCACCCTGATTTTCGCCGTTTGTTTGTTTCGGAGTCACCTAGTGCAG”: the binding signal was 9090 fluorescence intensity (a.u.).

Turning to “GATGGATCGGTTAGTCTTGTTAATTTCGTCATCAGCTTATCGGAGTCACCTAGTGCAG”, the binding signal was 11700 fluorescence intensity (a.u.).

As for “GCCCACTTGTCAATCTCTCTTTCTCTGTTCTTCTTCGACACGGAGTCACCTAGTGCAG”, the binding signal was 8870 fluorescence intensity (a.u.).

Values taken from PMC7819943, “Rice protein-binding microarrays: a tool to detect cis-acting elements near promoter regions in rice”.
